In all, about 1,600 compounds went through this assay and about 20 (1%) showed an effect of 50% or more. This is one part of the list.

This assay has as its system T1, E. coli pLC1021 (luc-trpAt trans-translation reporter).
T1 construct: pLC1021 luc-trpAt reporter strain
More on the design: species or system Escherichia coli pLC1021; luc-trpAt non-stop luciferase reporter; luminescence rises when trans-translation is inhibited; normalized to KKL-35 and DMSO. Particulars: reporter signal, KKL-35 = 100%; rise means trans-translation inhibition; 2 h, 20 µM. The method, boiled down:
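Cells carrying the non-stop luc-trpAt reporter were exposed to 20 µM compound for 2 h at room temperature, then Bright-Glo was added and luminescence read at 560 nm after 10 min. Signals were normalised per plate to DMSO and 20 µM KKL-35 wells. Hits: activity one SD above the median; ≥2 biological repeats averaged.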
In the case of `CC(C(=O)OCc1ccccc1)n1cnc2scc(-c3ccc(Br)cc3)c2c1=O` (stereo not drawn) [KKL-1313], the “% activation” value is reported as 0%.

For the compound `CC(=O)/C=C/c1ccc2ccccc2n1` [KKL-0886], the “% activation” value was 0%.

With `CCc1ccc(S(=O)(=O)Nc2cc(CN3CCN(CCC(C)C)CC3)ccc2C)cc1` [KKL-1849], the “% activation” value is given as 4%.

Regarding `O=C(Nc1ccc2c(c1)CN(C(=O)/C=C/c1cccs1)CC2)c1ccccn1` [KKL-1112], the “% activation” value is recorded as 0%.

As for `CCN(CC)c1ccc(NC(=O)c2ccc([N+](=O)[O-])o2)c(C)c1` [KKL-1330], the “% activation” value is 0%.

As to `O=C(NCCc1ccc(Cl)cc1)c1ccc(CNc2c(N3CCOCC3)c(=O)c2=O)cc1` [KKL-1135], the “% activation” value was 0%.

As for `CSc1nsc(SCC(=O)N2CCN(c3ccccc3)CC2)n1` [KKL-0572], the “% activation” value is 0%.

In the case of `Cc1nn(-c2ccccc2)c(C)c1N1C(=O)c2cccc3cc([N+](=O)[O-])cc(c23)C1=O` [KKL-1394], the “% activation” value was 1%.

For `COc1ccccc1-c1c(C)oc2cc(OCC(=O)OCc3ccccc3)ccc2c1=O` [KKL-0426], the “% activation” value amounted to 0%.

Regarding `CCN(Cc1ccc2c(c1)OCO2)C(=O)CSc1nc(NC)c2ccccc2n1` [KKL-1804], the “% activation” value worked out at 1%.

For the compound `Oc1ccccc1N=Cc1ccc[nH]1` [KKL-0874], the “% activation” value amounted to 4%.

Consider `O=C(c1ccc(Cl)cc1)c1ccc(OCC(O)CN2CCN(Cc3ccccc3)CC2)cc1` (stereo not drawn) [KKL-1453], for which the “% activation” value is recorded as 0%.

As for `c1ccc(SCc2nn3c(-c4ccccc4)nnc3s2)cc1` [KKL-1669], the “% activation” value is recorded as 2%.

`O=C(Nc1ccc(Cl)cc1)Nc1ccc(F)c(F)c1` [KKL-1350]: the “% activation” value is given as 0%.

Turning to `C=CCSc1nnc(-c2ccc([N+](=O)[O-])cc2)o1` [KKL-1062], the “% activation” value was determined as 0%.

On to `CSc1ncc(C(=O)Nc2cccc(C(F)(F)F)c2)cn1` [KKL-0605], for which the “% activation” value stood at 3%.

Consider `CCOC(=O)COc1ccc2c3c(c(=O)oc2c1)CCCCC3` [KKL-1496], for which the “% activation” value is listed as 0%.

With `O=S1(=O)CC(O)C(N2CCN(c3ccccc3Cl)CC2)C1` (stereo not drawn) [KKL-1794], the “% activation” value amounted to 6%.

Regarding `Cc1ccc(-c2csc(-c3ccc(O)cc3)n2)cc1` [KKL-0782], the “% activation” value is listed as 14%.

Take `CCCCCCn1c(=O)c(C(=O)Nc2nc(CC(=O)OCC)cs2)c(O)c2ccccc21` [KKL-0986]: the “% activation” value was 0%.

Take `O=C(NC(=S)N1CCCC1)c1ccc(-c2ccccc2)cc1` [KKL-1220]: the “% activation” value is 9%.

Turning to `Cc1ccc(-c2nnc3sc(Cc4ccccc4)nn23)cc1` [KKL-0615], the “% activation” value is 0%.

On to `CCOC(=O)Cn1nnc(-c2ccc(OCc3ccccc3C)cc2)n1` [KKL-1542], for which the “% activation” value was 0%.

With `FC(F)(F)c1cc(SCc2ccccc2)nc(-c2ccccn2)n1` [KKL-1823], the “% activation” value was 6%.

With `COc1ccccc1/C=C/C(=O)Oc1cccc2cccnc12` [KKL-0360], the “% activation” value is reported as 0%.

With `N=C(N)c1ccc(CCN2CCC(c3nc(COCC(F)(F)F)c(-c4ccc(F)cc4)o3)CC2)cc1` [KKL-1848], the “% activation” value stood at 28%.

For `O=C(CCCn1ccnc1)Nc1ncc(Cc2cccc(Cl)c2Cl)s1` [KKL-0941], the “% activation” value is reported as 0%.

Turning to `Cc1nc(SCc2csc(C)n2)c2c3c(sc2n1)CCCC3` [KKL-0287], the “% activation” value is recorded as 0%.

For the compound `Cc1ccc(Nc2nc(NCc3ccco3)c3ccccc3n2)cc1` [KKL-0364], the “% activation” value worked out at 19%.

With `O=C(c1ccc(Cl)cc1)C1CCCN(Cc2ccc3nonc3c2)C1` (stereo not drawn) [KKL-0479], the “% activation” value amounted to 0%.

Regarding `COc1ccc2nc(C)cc(OCC(=O)NCc3ccccc3)c2c1` [KKL-1765], the “% activation” value was 39%.

Take `O=C1C(NS(=O)(=O)c2cccs2)=C(N2CCN(c3cccc(C(F)(F)F)c3)CC2)C(=O)c2ccccc21` [KKL-0989]: the “% activation” value is reported as 2%.

For the compound `Cc1n[nH]c(C)c1S(=O)(=O)NCc1nc(NCCCc2ccccc2)c2ccccc2n1` [KKL-1839], the “% activation” value is listed as 1%.

For `CCN(CC)c1cccc(Oc2nc([N+](=O)[O-])nn2C)c1` [KKL-0601], the “% activation” value came out at 0%.

Regarding `COc1cccc(-c2cc(CC3(O)CCN(Cc4[nH]c5ccc(C)cc5c4C)CC3)on2)c1` [KKL-0315], the “% activation” value is 0%.

For `CCc1nnc(NC(=O)c2cccc(C(=O)Nc3nnc(CC)s3)n2)s1` [KKL-1023], the “% activation” value is on record as 6%.

For the compound `CCC(CO)N1C(C)=CC(=Cc2sc3ccccc3[n+]2Cc2ccccc2)C=C1C` (stereo not drawn) [KKL-0847], the “% activation” value turned out to be 0%.

Regarding `Cc1ccc(-c2[nH]ncc2CNCc2ccc(OC(F)(F)F)cc2)cc1C` [KKL-0661], the “% activation” value is listed as 9%.

Turning to `CSc1ncc(CN2CCC(O)(c3ccc(C(F)(F)F)cc3)CC2)cn1` [KKL-0927], the “% activation” value was 0%.

Regarding `Cc1cccc(N2CCN(C3=NC(=O)C(=C4CCCCC4)S3)CC2)c1` [KKL-0914], the “% activation” value is given as 0%.

As for `Cn1c2c(c(=O)n(C)c1=O)C(C(F)(F)F)(C(F)(F)F)NC(c1ccc(Cl)cc1)=N2` [KKL-0608], the “% activation” value was 10%.

For the compound `NC1CCc2nc(-c3cccnc3)nc(Nc3cccc(C(F)(F)F)c3)c2C1` (stereo not drawn) [KKL-0530], the “% activation” value is given as 124%.

`Cc1nnc(NCc2cccc(Cl)c2)c2ccccc12` [KKL-1684]: the “% activation” value stood at 0%.

`Oc1nc(-c2ccccn2)nc2ccccc12` [KKL-0878]: the “% activation” value was found to be 0%.

`CCCCOc1ccc(S(=O)(=O)Nc2ccc(I)cc2)cc1` [KKL-0910]: the “% activation” value stood at 10%.

Turning to `OC(CNCc1ccco1)Cn1c2ccc(Br)cc2c2cc(Br)ccc21` (stereo not drawn) [KKL-1106], the “% activation” value is 0%.

Take `COc1ccc(C=c2sc(=CC(=O)C(C)(C)C)[nH]c2=O)cc1O` [KKL-0950]: the “% activation” value came to 0%.

Turning to `Cc1cc(OCCCCCn2ccnc2)cc(C)c1Cl` [KKL-1249], the “% activation” value is 21%.

As to `CCC(CC)c1nnc(NC(=O)c2ccc3ccccc3n2)s1` [KKL-0811], the “% activation” value is 0%.

Consider `CCOC(=O)c1ccc(NC(S)=Nc2ccc(Oc3ccccc3)cc2)cc1` [KKL-1317], for which the “% activation” value was 0%.

With `O=C(NCc1cc(Cl)cc(Cl)c1)c1c(C(F)(F)F)nc2ccccn12` [KKL-1807], the “% activation” value was found to be 0%.

As to `C[n+]1c2n(c3ccccc31)N=C(c1cc(C(C)(C)C)c(O)c(C(C)(C)C)c1)CS2` [KKL-1636], the “% activation” value is 0%.

For the compound `O=S(=O)(NCc1ccccc1)c1ccc(-c2c(OC3CCNCC3)ccc3cnccc23)s1` [KKL-1866], the “% activation” value is 33%.

Regarding `COc1ccc(NCc2cc3c(C)nn(-c4ccccc4)c3nc2O)c(OC)c1` [KKL-1213], the “% activation” value is listed as 0%.

With `NC1CCc2nc(-c3ccncc3)nc(Nc3ccc(Cl)cc3)c2C1` (stereo not drawn) [KKL-0326], the “% activation” value came to 797%.

As for `CC1CCCc2sc(NC(=S)NC(=O)c3ccccc3)c(C#N)c21` (stereo not drawn) [KKL-0857], the “% activation” value is given as 0%.

Take `N#Cc1nc(-c2cccs2)oc1NCCc1ccccc1` [KKL-1016]: the “% activation” value is recorded as 3%.

`OC(CN1CCN(c2ccccn2)CC1)Cn1c2ccc(Cl)cc2c2cc(Cl)ccc21` (stereo not drawn) [KKL-1649]: the “% activation” value is on record as 0%.

As to `O=C(NCCO)c1c(O)c2ncc(Cc3ccc(F)cc3C(F)(F)F)cc2[nH]c1=O` [KKL-1865], the “% activation” value was found to be 4%.

For the compound `Cc1ccc(Cl)cc1N1CCN(CC(O)COc2ccc(C(=O)c3ccccc3)cc2)CC1` (stereo not drawn) [KKL-0406], the “% activation” value stood at 0%.

For the compound `Cc1ccc2nc(C(F)(F)F)c(C(=O)NCc3ccc4c(c3)OCO4)n2c1` [KKL-1771], the “% activation” value amounted to 2%.

Take `Cc1cc(NS(=O)(=O)c2ccc(NC(=O)c3ccc(C(C)(C)C)cc3)cc2)no1` [KKL-1380]: the “% activation” value was 0%.

Turning to `O=C(Nc1ccc(C(F)(F)F)cc1)Nc1cccc(Cl)c1` [KKL-1575], the “% activation” value came to 2%.

On to `CCC(C)c1ccc(OCC(=O)Nc2ccc(OC)c([N+](=O)[O-])c2)cc1` (stereo not drawn) [KKL-1538], for which the “% activation” value is reported as 4%.

Consider `COc1cccc(-c2ccccc2NC(=O)C2CCN(Cc3cc(C)ccc3C)CC2)c1` [KKL-1138], for which the “% activation” value worked out at 0%.

In the case of `CSCCC(=O)N1CCCC(C(=O)Nc2cccc(-c3cccc(C)c3)c2)C1` (stereo not drawn) [KKL-0499], the “% activation” value was found to be 0%.

Consider `O=C(Nc1cccc(Cl)c1)Nc1ccccc1OC(F)(F)C(F)F` [KKL-0431], for which the “% activation” value amounted to 21%.

Consider `COC(=O)[C@@H]1Cc2c([nH]c3ccccc23)[C@H]2C[C@H](NCc3cccnc3)C[C@@H](c3ccc(F)cc3)N21` [KKL-0302], for which the “% activation” value came out at 0%.

Take `CSc1nc2ccc(NC(=O)C3CC(=O)N(Cc4ccccc4)C3)cc2s1` (stereo not drawn) [KKL-0922]: the “% activation” value is 0%.

For the compound `O=C(NCc1cccs1)c1cc2n(n1)C(C(F)(F)F)CC(c1ccc3c(c1)OCO3)N2` (stereo not drawn) [KKL-0966], the “% activation” value came out at 22%.

For the compound `CC(C)(C)NC(=O)COC(=O)c1snc(C(=O)NC2CCCCC2)c1N` [KKL-1657], the “% activation” value came out at 1%.

As for `Cc1ccc(CNC(=O)c2ccc([N+](=O)[O-])o2)cc1` [KKL-1641], the “% activation” value is 0%.

As to `COC(=O)COc1ccc2cc(-c3ccc(OC)c(OC)c3)c(=O)oc2c1` [KKL-0565], the “% activation” value turned out to be 3%.

Regarding `COc1cc(CN(CCCn2ccnc2)Cc2ccc(C)s2)cc2c1OCO2` [KKL-0341], the “% activation” value is recorded as 9%.

As for `CCOC(=O)C1CCN(Cc2nc(-c3ccc(Cl)cc3)no2)CC1` [KKL-0666], the “% activation” value is given as 6%.

Consider `c1ccc(CCN2CCC3(CC2)Nc2ccccc2-n2cccc23)cc1` [KKL-1258], for which the “% activation” value was determined as 0%.

`CC(C)(C)c1cc(Cl)ccc1OCCCCn1ccnc1` [KKL-1305]: the “% activation” value came to 5%.

In the case of `COC(=O)[C@@H](NC(=O)c1cc(COc2cncc(Cl)c2)on1)c1ccccc1` [KKL-0505], the “% activation” value is listed as 12%.

As for `Cc1ccc(C(=O)NCCC23CC4CC(CC(C4)C2)C3)cc1` [KKL-0858], the “% activation” value was determined as 0%.

Turning to `OC1(Cc2cc(-c3ccccc3)no2)CCN(Cc2ccc(OC3CCCC3)cc2)CC1` [KKL-0632], the “% activation” value came out at 0%.

With `COC(=O)c1ccc(CN2CCC(C(=O)Nc3cccc(-c4ccco4)c3)CC2)cc1` [KKL-1156], the “% activation” value stood at 0%.

In the case of `COC(=O)c1ccc(C(=O)NC2CCCc3c2cnn3-c2cc(F)cc(F)c2)nc1` (stereo not drawn) [KKL-1174], the “% activation” value is listed as 2%.

With `CCOc1cc(/C=C2\SC(=N)N(c3nccs3)C2=O)ccc1OCCN1CCOCC1` [KKL-0454], the “% activation” value stood at 0%.

Regarding `CCC(Sc1nc2ccccc2o1)C(=O)Nc1nnc(C)s1` (stereo not drawn) [KKL-1356], the “% activation” value came to 2%.
